The campaign covered roughly 340,000 compounds. About 170 (0.05%) were called active. Inconclusive results, whose numbers are uncertain, are shown with a selection of clear calls. Calls follow the shape of the dose curve; as a rule, active = well fitted inhibition curve with a large enough effect in the signal ratio, with a control signal flat (not every such curve was filed as active); inconclusive = small, poorly fitted or top-dose-only effect, or effect the other way, or a change in a side signal; inactive = flat fitted curve, though single readings scatter; the % refers to the signal ratio. Where the call is inconclusive, the potency comes from a doubtful curve fit.
assay: qHTS Assay to Find Inhibitors of Chronic Active B-Cell Receptor Signaling; conditions: ABC-DLBCL IkBa-CBG/CBR reporter, luminescence ratio (green luciferase fused to IkBa over red control in TMD8 lymphoma cells), 4 h; activity change, negative = inhibition: at 46.1 µM (top of the series) unless noted;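 as to activity change, negative = inhibition: plate controls were basal doxycycline-induced cells for no effect and cells given 10 µM MG132 for full effect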
Summary of the method: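 TMD8 human ABC-DLBCL cells with doxycycline-inducible IκBα–green luciferase fusion and unfused red luciferase, in 0.5% FBS medium; compounds up to 46 uM, 4 h at 37C. Green/red luminescence ratio, filter-overlap corrected, fitted to concentration-response curves.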
Potency is read from the fitted curve at half-maximal effect.

| Compound | activity change, negative = inhibition | Potency |
| --- | --- | --- |
| CCCn1cc(S(=O)(=O)CC(=O)Nc2ccc(OCC)cc2)c2ccccc21 | inconclusive: -2.68% | – |
| CCOC(=O)c1c(C)[nH]c(C(=O)OCC(=O)Nc2cc(C)nn2-c2ccccc2)c1C | inactive | – |
| Cc1ccc(Sc2ccc([N+](=O)[O-])cc2[N+](=O)[O-])nc1 | inconclusive: -19.6% | – |
| Cc1ccc(NC(=O)c2cn(-c3cccc(C)n3)cn2)cc1 | – | inconclusive: 2.51 µM [falling, full curve, poor fit] |
| O=c1cc(Cl)c(-c2ccccc2)nn1Cc1ccc(Cl)cc1 | inconclusive: -5.79% | – |
| O=C(Nc1cccnc1)c1ccc([N+](=O)[O-])cc1Cl | inactive | – |
| CN(C(=O)CCc1nnc(CCCCc2ccccc2)o1)C1CC(C)(C)NC(C)(C)C1 | inconclusive: 0.203% | – |
| CC(=O)c1ccc(N2CCN(C(=O)CCS(=O)(=O)c3ccc4c(c3)NC(=O)CS4)CC2)cc1 | inactive | – |
| COc1ccc(-n2nnnc2SCc2nc3ccccc3s2)cc1 | – | inconclusive: 1.16 µM [rising, full curve, poor fit] |
| O=C(CNc1ccccc1-c1ccccc1)NCc1ccccc1 | inactive | – |
| CC(NC(=O)[C@@H](C)NC(=O)[C@@H]1Cc2ccccc2CN1C(=O)OC(C)(C)C)c1ccccc1 (stereo not given in full) | inactive | – |
| Cc1ccnc(NC(=O)c2cc3ccccc3oc2=O)c1 | – | inconclusive: 2.51 µM [falling, full curve] |
| COc1ccc(CN(C(=O)c2cc3ccccc3oc2=O)C2CCS(=O)(=O)C2)cc1 (stereo not given) | inconclusive: 11.2% | – |
| Cc1ccc(NC(=O)Cn2ncc3ccccc32)c(Cl)c1 | inconclusive: -0.0679% | – |
| CC(COc1ccccc1)N1CCC(CO)(CCc2ccccc2)CC1 (stereo not given) | inconclusive: -19.1% | – |
| Cc1noc(C)c1S(=O)(=O)NCc1ccc(CN(C)C)cc1 | inactive | – |
| CN(C)CCCN(C(=O)CCOc1ccccc1)c1nc2c(F)cccc2s1 | – | inconclusive: 35.5 µM [rising, single point] |
| NNc1nc2c(Cl)cccc2s1 | inconclusive: -10.2% | – |
| O=C(Nc1cccc([N+](=O)[O-])c1)C1COc2ccccc2O1 (stereo not given) | inconclusive: 3.29% | – |
| O=C(c1ccc(S(=O)(=O)N2CCOCC2)cc1)N1CCN(S(=O)(=O)c2ccc(Cl)s2)CC1 | inactive | – |
| Cc1cccc(OCCOC(=O)Nc2ccccc2)c1 | inconclusive: -1.15% | – |
| O=C(CSc1nnnn1-c1ccccc1)NCCCN1CCCC1=O | inconclusive: 0.288% | – |
| CCOC(=O)NC(=O)/C(N=Nc1cccc(C(F)(F)F)c1)=C(\C)O | inconclusive: 5.45% | – |
| O=C(COC(=O)Cc1ccc(Cl)cc1)Nc1c(F)cccc1F | inconclusive: -0.599% | – |
| CSCC[C@H](NC(=O)OC(C)(C)C)C(=O)N/N=C/c1cccc2nccnc12 | – | inconclusive: 20 µM [falling, partial curve, poor fit] |
| CN1CCN(C(=O)CSc2nc(-c3cccs3)cc(-c3cccs3)c2C#N)CC1 | inconclusive: -0.215% | – |
| COc1cc2c(c(OC)c1OC)C(c1ccc(C)cc1)CC(=O)O2 (stereo not given) | inconclusive: -19.5% | – |

| Compound | activity change, negative = inhibition | Potency |
| --- | --- | --- |
| COc1ccccc1/C=C/C(=O)Nc1cccnc1 | – | inconclusive: 35.5 µM [rising, single point] |
| O=C(CN1CCN(C(=O)C2CCCO2)CC1)Nc1c(Cl)cccc1Cl (stereo not given) | inconclusive: 4.73% | – |
| O=C(COc1ccc2ccccc2c1)Nc1cccc(C(=O)Nc2ccccc2C(=O)O)c1 | – | inconclusive: 29.1 µM [falling, single point] |
| CC(=O)c1c(C)[nH]c(C(=O)COC(=O)CCOc2ccc(C)cc2)c1C | inconclusive: -4.97% | – |
| COc1ccc(-c2cc3c(=O)n(CC(=O)NCc4ccc(C)cc4)ncn3n2)cc1 | inconclusive: 12.5% | – |
| O=S(=O)(c1ccccc1)c1cnn2c(C(F)(F)F)cc(-c3ccccc3)nc12 | inactive | – |
| O=C1NC(=Nc2ccccc2)S/C1=C\c1cccn1-c1ccccc1 | – | inconclusive: 0.291 µM [falling, full curve, poor fit] |
| COc1cccc(C(=O)NCCCNC(=O)c2cccc(OC)c2)c1 | – | inconclusive: 15.8 µM [falling, partial curve, poor fit] |
| COc1ccc(/C=N/Nc2cn[nH]c(=O)c2Cl)cc1 | inconclusive: 312% [cytotoxic] | – |
| COc1ccc(CN2CCNC(=O)C2CC(=O)NCCCn2cccn2)c(OC)c1 (stereo not given) | inactive | – |
| O=C(Nc1ccccc1)c1cnc[nH]1 | inconclusive: -23% | – |
| O=C(OCC(=O)N1CCc2ccccc2C1)c1ccc(OC(F)F)cc1 | inconclusive: 7.53% | – |
| Cc1cc(C(=O)Cn2nc(C(=O)O)c3ccccc3c2=O)c(C)n1-c1cccc(C(F)(F)F)c1 | inactive | – |
| CC(=O)Nc1ccc(S(=O)(=O)N(C)CCOCc2ccccc2)cc1 | inactive | – |
| O=C(NCC(Cl)c1ccc2ccccc2c1)c1c(F)cccc1F (stereo not given) | – | inconclusive: 5.01 µM [falling, full curve] |
| CN(CC(=O)Nc1ccc(F)c(F)c1F)C(=O)Cc1ccc2c(c1)OCCO2 | inconclusive: 0.689% | – |
| O=C(COc1ccc(F)cc1Br)N1CCc2ccccc21 | inconclusive: 17% | – |
| COc1cccc(-c2cc(C(=O)Nc3cc(C)nn3-c3ccccc3)no2)c1 | – | inconclusive: 7.31 µM [falling, partial curve, poor fit] |
| CCOc1cc(-c2cc(-c3ccccc3)nc(N)c2C#N)ccc1O | inactive | – |
| O=C(CCc1ccc(S(=O)(=O)N2CCOCC2)cc1)Nc1nc(COc2ccccc2)cs1 | – | inconclusive: 13 µM [falling, partial curve] |
| COc1ccc(CN(C(=O)c2cc(=O)c3cc(C)cc(C)c3o2)C2CCS(=O)(=O)C2)cc1 (stereo not given) | – | inconclusive: 15.8 µM [falling, single point] |
| O=C(NNC(=O)C1CC1)c1ccc(-c2ccccc2)cc1 | inconclusive: -0.714% | – |
| CCc1ccccc1Nc1nc(N)nc(COC(=O)CCS(=O)(=O)c2ccccc2)n1 | – | inconclusive: 18.4 µM [falling, partial curve] |
| COc1ccc(/C=C2\CCC(C3CCCC3)C2=O)c(OC)c1 (stereo not given) | inconclusive: 3.82% | – |
| Cc1ccc(-c2nnc(-c3cccs3)o2)cc1 | inconclusive: -3.45% | – |
| N#Cc1cc2c([nH]c1=S)CCCC2 | – | inconclusive: 18.4 µM [falling, partial curve] |
| O=C(c1cc(Cl)cc(Cl)c1)N1CCOCC1 | inconclusive: 8.82% | – |

| Compound | activity change, negative = inhibition | Potency |
| --- | --- | --- |
| CC(=O)NC(C)c1nc2ccccc2n1Cc1ccccc1F (stereo not given) | – | inconclusive: 0.103 µM [rising, full curve, poor fit] |
| CCC1(CC)NC(=O)N(CC(=O)OCc2nc3cc(C(=O)OC)ccc3c(=O)[nH]2)C1=O | inactive | – |
| COc1ccc(NC(=O)CN(C)C(=O)Cn2c(=O)oc3ccccc32)cc1 | – | inconclusive: 20.6 µM [falling, partial curve, poor fit] |
| Nc1nnnn1/N=C/c1cc(Cl)ccc1O | inactive | – |
| Cc1cccc(C(=O)NNC(=O)CN2C(=O)c3ccccc3C2=O)c1 | – | inconclusive: 0.116 µM [falling, full curve, poor fit] |
| [O-][n+]1c2c(c3c4non(O)c4ccc31)CCCC2 | – | inconclusive: 1.64 µM [rising, partial curve, poor fit] |
| C=CCOc1c(Cl)cc(CNc2ccc(N(C)C)cc2)cc1OC | – | inconclusive: 20 µM [falling, single point] |
| COc1ccc(C(=O)NC(=C(Cl)Cl)S(=O)(=O)c2ccc(C)cc2)cc1 | inconclusive: -12% | – |
| COc1ccc(NC(=O)CN(C)CC(=O)Nc2ccc(Cl)cc2F)cc1 | inactive | – |
| COc1cc2c(cc1NC(=O)CSc1cccc[n+]1[O-])oc1ccccc12 | inconclusive: -1.43% | – |
| COc1cc(OC)c(N(C)S(=O)(=O)c2cccc(C(=O)OCC(=O)N3CCOCC3)c2)cc1Cl | inactive | – |
| Cc1ccc(S(=O)(=O)N(C)C)cc1NC(=O)C(C)Sc1ccccc1 (stereo not given) | inactive | – |
| O=C(CN(C(=O)CCC(=O)Nc1ccccn1)c1ccc2c(c1)OCO2)NCc1ccc(F)cc1 | inactive | – |
| O=c1[nH]nc(CNc2cccc(C(F)(F)F)c2)c2ccccc12 | inconclusive: -2.78% | – |
| O=C(O)CCn1cc(/C=C\C(=O)c2ccc(Cl)cc2)c(-c2cccc(Br)c2)n1 | inconclusive: 13.2% | – |
| O=C1c2ccccc2-c2onc3ccc(NCCCn4ccnc4)c1c23 | – | inconclusive: 23.1 µM [rising, partial curve, poor fit] |
| Nc1ccc2nc3c(=O)n(CCc4ccccc4)c(=O)[nH]c3nc2c1 | – | inconclusive: 12.6 µM [falling, single point] |
| Cn1c(CCN2CCCCC2)nc2cc(NS(=O)(=O)c3ccccc3)ccc21 | inconclusive: -24.1% | – |
| CCOc1ccc(NC(=S)NC(=O)c2c(Br)cnn2C)c([N+](=O)[O-])c1 | inconclusive: -1.44% | – |
| Cc1ccc(/C=N/NC(=O)Cc2ccc(O)cc2)s1 | inconclusive: -18% | – |
| Cc1c(C#N)c(=O)c(-[n+]2ccccc2)c([S-])n1-c1ccc(Cl)cc1 | inconclusive: 5.02% | – |
| O=C(O)c1cccc(N2C(=O)c3cccc4c(Cl)ccc(c34)C2=O)c1 | inactive | – |
| CCn1c(Cc2ccc(OC)cc2)nc2ccccc21 | inactive | – |
| CCOCCn1c(CN(C)Cc2ccccc2)nc2c1c(=O)n(C)c(=O)n2C | inconclusive: 16.5% | – |
| CC(C)CCN1CC(O)=C(c2nc3ccccc3[nH]2)C1=N | – | inconclusive: 6.51 µM [rising, single point] |
| O=C(O)Cc1ccc(Nc2cnn(C34CC5CC(CC(CC(=O)O)(C5)C3)C4)c(=O)c2Cl)cc1 | inconclusive: -0.351% | – |

Quoted at random: 3 records from the list

| Compound | activity change, negative = inhibition | Potency |
| --- | --- | --- |
| CC(=O)NC(C)c1nc2ccccc2n1Cc1ccccc1F (stereo not given) | – | inconclusive: 0.103 µM [rising, full curve, poor fit] |
| COc1ccc(NC(=O)CN(C)C(=O)Cn2c(=O)oc3ccccc32)cc1 | – | inconclusive: 20.6 µM [falling, partial curve, poor fit] |
| COc1ccc(NC(=O)CN(C)CC(=O)Nc2ccc(Cl)cc2F)cc1 | inactive | – |

Three entries out of the list, ordered by SMILES length, descending.

| Compound | activity change, negative = inhibition | Potency |
| --- | --- | --- |
| O=C(O)Cc1ccc(Nc2cnn(C34CC5CC(CC(CC(=O)O)(C5)C3)C4)c(=O)c2Cl)cc1 | inconclusive: -0.351% | – |
| CCOc1ccc(NC(=S)NC(=O)c2c(Br)cnn2C)c([N+](=O)[O-])c1 | inconclusive: -1.44% | – |
| Cn1c(CCN2CCCCC2)nc2cc(NS(=O)(=O)c3ccccc3)ccc21 | inconclusive: -24.1% | – |
